{"sequences": {"note": "Protein sequences, listed by entry. Tags and fused reporters are not part of them.", "UniProt P10238": "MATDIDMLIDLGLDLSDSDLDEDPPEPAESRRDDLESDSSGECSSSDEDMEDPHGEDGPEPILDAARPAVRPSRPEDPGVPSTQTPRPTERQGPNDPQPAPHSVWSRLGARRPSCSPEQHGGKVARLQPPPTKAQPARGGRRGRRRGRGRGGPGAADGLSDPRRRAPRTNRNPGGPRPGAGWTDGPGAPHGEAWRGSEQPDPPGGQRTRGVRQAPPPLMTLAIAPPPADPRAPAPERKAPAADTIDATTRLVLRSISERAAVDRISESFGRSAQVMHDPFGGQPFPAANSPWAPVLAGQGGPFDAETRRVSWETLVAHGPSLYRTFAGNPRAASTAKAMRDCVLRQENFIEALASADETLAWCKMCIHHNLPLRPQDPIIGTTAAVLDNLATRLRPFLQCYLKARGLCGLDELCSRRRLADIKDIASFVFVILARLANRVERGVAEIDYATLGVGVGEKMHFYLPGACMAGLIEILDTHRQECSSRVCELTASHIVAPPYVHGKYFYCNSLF"}, "source": "paper PMC8880913", "molecular_target": "T1, Flag-tagged MOV10 (Moloney leukemia virus 10 protein) (human) (UniProt Q9HCE1)", "T1 sequence": "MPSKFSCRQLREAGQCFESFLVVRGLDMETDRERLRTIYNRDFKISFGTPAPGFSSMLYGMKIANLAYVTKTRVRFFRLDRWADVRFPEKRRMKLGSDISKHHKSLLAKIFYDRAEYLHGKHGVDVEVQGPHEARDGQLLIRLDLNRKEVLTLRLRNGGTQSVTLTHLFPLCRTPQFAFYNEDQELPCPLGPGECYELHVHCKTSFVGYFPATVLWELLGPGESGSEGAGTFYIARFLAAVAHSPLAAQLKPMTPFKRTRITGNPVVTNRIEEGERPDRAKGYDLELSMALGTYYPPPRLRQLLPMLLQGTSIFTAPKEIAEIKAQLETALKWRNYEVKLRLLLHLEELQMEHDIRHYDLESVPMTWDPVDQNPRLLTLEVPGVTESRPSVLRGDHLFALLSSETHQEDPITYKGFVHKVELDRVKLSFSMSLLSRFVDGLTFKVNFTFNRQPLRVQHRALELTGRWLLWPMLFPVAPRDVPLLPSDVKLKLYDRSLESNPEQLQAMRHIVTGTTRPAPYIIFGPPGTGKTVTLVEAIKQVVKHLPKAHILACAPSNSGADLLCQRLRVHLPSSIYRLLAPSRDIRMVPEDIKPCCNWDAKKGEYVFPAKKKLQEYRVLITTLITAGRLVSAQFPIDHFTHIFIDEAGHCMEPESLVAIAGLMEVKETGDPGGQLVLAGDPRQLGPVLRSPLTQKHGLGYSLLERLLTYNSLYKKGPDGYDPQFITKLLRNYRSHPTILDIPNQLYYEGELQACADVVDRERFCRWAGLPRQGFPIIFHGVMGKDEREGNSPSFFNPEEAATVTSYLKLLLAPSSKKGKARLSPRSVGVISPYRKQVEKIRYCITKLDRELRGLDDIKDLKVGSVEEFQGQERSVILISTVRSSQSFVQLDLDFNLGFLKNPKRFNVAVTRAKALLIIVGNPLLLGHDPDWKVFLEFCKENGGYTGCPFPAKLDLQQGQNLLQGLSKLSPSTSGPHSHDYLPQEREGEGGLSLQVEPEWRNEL", "experiment": "affinity purification with mass spectrometry; MOV10 immunoprecipitated from transfected, KOS-infected Neuro-2a cells (anti-FLAG beads; mouse IgG-agarose as control); LC-MS/MS, label-free iBAQ", "note": "Results are given in words; binding and its absence hold for the method and conditions named. Binding seen in cells or lysates may run through a third protein. Here binding means that the protein was enriched with, or labelled near, the bait; the list need not be complete. Tags and fused reporters may be left off the sequences shown."}
{"substance": "HSV-1 ICP27 expressed during HSV-1 infection (from UniProt P10238 1-512)", "values": [{"measurement": "binding", "value": "binds"}]}
